Results as given in PMC6692471.
No constants are given. Whether binding was seen depends on the method and setting. Binding seen in cells or lysates may run through a third protein. Some binding calls cover weakened binding; strength is not graded here. For some assays here: Where a sequence is shown, tags or fusion partners need not be part of it.

Protein sequences, listed by entry. Tags and fused reporters are not part of them.
UniProt P51809: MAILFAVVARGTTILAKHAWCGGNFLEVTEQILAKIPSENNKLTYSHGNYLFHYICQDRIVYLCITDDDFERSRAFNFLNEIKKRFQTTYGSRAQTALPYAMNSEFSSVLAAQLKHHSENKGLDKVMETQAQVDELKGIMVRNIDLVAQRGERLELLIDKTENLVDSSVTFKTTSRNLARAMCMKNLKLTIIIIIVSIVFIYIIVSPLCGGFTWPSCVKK
UniProt P63027: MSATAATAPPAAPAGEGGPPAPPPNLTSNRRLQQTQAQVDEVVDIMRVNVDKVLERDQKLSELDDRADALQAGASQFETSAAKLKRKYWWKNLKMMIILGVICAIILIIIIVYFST

Experiments:
[1] = target: T1, Twin-Strep-tag-Syntaxin11 (UniProt O75558); test: pull-down; Twin-Strep-tag pulldown: 500 ug cleared lysate of transfected primary human CD8+ T cells on Strep-Tactin-Sepharose, 1.5 h, 4 C; lysis and wash buffer 50 mM Tris pH 7.4, 300 mM NaCl, 0.5% Triton X-100; bound proteins detected by Western blot
T1 sequence: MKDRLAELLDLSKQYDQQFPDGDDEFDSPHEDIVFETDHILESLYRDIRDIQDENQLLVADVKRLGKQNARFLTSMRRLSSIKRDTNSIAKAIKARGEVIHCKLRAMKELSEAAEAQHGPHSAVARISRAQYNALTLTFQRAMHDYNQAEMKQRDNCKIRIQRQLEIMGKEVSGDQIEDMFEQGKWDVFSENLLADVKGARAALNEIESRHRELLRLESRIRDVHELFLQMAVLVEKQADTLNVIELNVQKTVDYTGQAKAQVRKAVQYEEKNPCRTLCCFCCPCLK

[2] = target: VAMP7-Flag-Twin-Strep-tag (UniProt P51809); test: as above

VAMP2 (from UniProt P63027 1-116)
binding [1]: no binding

B1: Syntaxin11 (protein, UniProt O75558 1-287)
chain: MKDRLAELLDLSKQYDQQFPDGDDEFDSPHEDIVFETDHILESLYRDIRDIQDENQLLVADVKRLGKQNARFLTSMRRLSSIKRDTNSIAKAIKARGEVIHCKLRAMKELSEAAEAQHGPHSAVARISRAQYNALTLTFQRAMHDYNQAEMKQRDNCKIRIQRQLEIMGKEVSGDQIEDMFEQGKWDVFSENLLADVKGARAALNEIESRHRELLRLESRIRDVHELFLQMAVLVEKQADTLNVIELNVQKTVDYTGQAKAQVRKAVQYEEKNPCRTLCCFCCPCLK
binding [2]: binds
